Laboratory results: paper PMC11432330, “Novel Drug-like HsrA Inhibitors Exhibit Potent Narrow-Spectrum Antimicrobial Activities against Helicobacter pylori” (International Journal of Molecular Sciences, 2024)
Further values from the same series stand in other lists.

System: H. pylori 26695
Experiment: In vivo inhibition of HsrA: RNA-Seq transcriptomic analysis of exposed cells
Format: cell-based, Helicobacter pylori
Method: Bacterial growth from three blood agar plates of H. pylori ATCC 700392 (aka 26695) incubated for 48 h at 37 °C under microaerobic conditions was aseptically resuspended in BHI + FBS and adjusted to 10^7 CFU/mL. BHI broth cultures were incubated microaerobically at 37 °C for 24 h. […] At this time, bacterial growth was stopped by adding 1.5 mL ice-cold RNA stop solution (95% absolute ethanol, 5% acid-buffered phenol) and subsequently incubated on ice. Control samples were exposed to the same amount of DMSO instead of the inhibitor. Helicobacter cells from all samples were harvested by centrifugation (4000 rpm at 4 °C for 10 min), then the pellets were quickly frozen by immersion in liquid nitrogen and stored at −80 °C.
RNA-Seq analysis was performed by GENEWIZ (Azenta Life Sciences, Leipzig, Germany). Frozen cell pellets from two biological replicates of each treatment condition were properly submitted to GENEWIZ in dry ice. RNA-Seq libraries were prepared according to standard protocols via rRNA depletion, RNA fragmentation and random priming, reverse transcription, 5’-phosphorylation and dA-tailing of cDNAs, adaptor ligation, and PCR enrichment. Once the quality of each library was confirmed, they were sequenced on an Illumina NovaSeq 6000 (Illumina, San Diego, CA, USA) with 150-bp paired-ends. Raw sequence reads were filtered to remove possible adapter sequences and nucleotides with poor quality using Trimmomatic v.0.36 [105]. The trimmed reads were subsequently mapped to the H. pylori strain 26695 reference genome NC_000915.1 available on NCBI, by using the Bowtie2 aligner v.2.2.6 [106]. Unique gene hit counts were calculated by using featureCounts from the Subread package v.1.5.2. Only unique reads that fell within the gene regions were counted. Using DESeq2 [108], a comparison of the gene expression between the control and treated groups of samples was performed. The Wald test was used to generate p-values and log2 fold changes. Genes with an adjusted p-value < 0.05 and absolute log2 fold change >1 were considered as differentially expressed genes (DEGs) for each comparison. The RNA-Seq data generated in this study have been deposited in ArrayExpress with the accession number E-MTAB-14255.

SMILES: NC(=NOC(=O)Nc1ccc(Cl)cc1)c1csc([N+](=O)[O-])c1 [Ligand V, N′-{[(4-chloroanilino)carbonyl]}oxy-5-nitrothiophene-3-carboximidamide]
- log2 Fold Change (gene HP0004, exposed to lethal concentration of V vs control): -0.934
- log2 Fold Change (gene HP0009, exposed to lethal concentrations vs control): -0.137
- log2 Fold Change (gene HP0014, exposed to lethal concentrations of V vs control): 0.530
- log2 Fold Change (gene HP0015, exposed to lethal concentrations vs control): -0.727
- log2 Fold Change (gene HP0016, exposed to lethal concentration of V vs control): -0.920
- log2 Fold Change (gene HP0017, exposed to lethal concentrations vs control): 1.878
- log2 Fold Change (gene HP0019, exposed to lethal concentrations vs control): 1.526
- log2 Fold Change (gene HP0020, exposed to lethal concentrations vs control): 1.383
- log2 Fold Change (gene HP0021, exposed to lethal concentrations vs control): -0.054
- log2 Fold Change (gene HP0024, exposed to lethal concentrations vs control): 2.020
- log2 Fold Change (gene HP0025, exposed to lethal concentrations of V vs control): 0.492
- log2 Fold Change (gene HP0027, exposed to lethal concentrations vs control): -0.045
- log2 Fold Change (gene HP0032, exposed to lethal concentrations of V vs control): 0.606
- log2 Fold Change (gene HP0034, exposed to lethal concentrations vs control): 1.038
- log2 Fold Change (gene HP0035, exposed to lethal concentrations of V vs control): 0.902
- log2 Fold Change (gene HP0036, exposed to lethal concentrations of V vs control): 0.681
- log2 Fold Change (gene HP0038, exposed to lethal concentrations vs control): -0.105
- log2 Fold Change (gene HP0044, exposed to lethal concentrations vs control): -0.698
- log2 Fold Change (gene HP0045, exposed to lethal concentrations vs control): -0.109
- log2 Fold Change (gene HP0047, exposed to lethal concentrations vs control): 0.108
- log2 Fold Change (gene HP0048, exposed to lethal concentrations vs control): 0.009
- log2 Fold Change (gene HP0049, exposed to lethal concentrations of V vs control): 0.878
- log2 Fold Change (gene HP0050, exposed to lethal concentration of V vs control): -1.038
- log2 Fold Change (gene HP0051, exposed to lethal concentrations vs control): -0.661
- log2 Fold Change (gene HP0053, exposed to lethal concentration of V vs control): -0.990
- log2 Fold Change (gene HP0055, exposed to lethal concentrations of V vs control): 0.687
- log2 Fold Change (gene HP0056, exposed to lethal concentrations vs control): 1.163
- log2 Fold Change (gene HP0057, exposed to lethal concentration of V vs control): -1.007
- log2 Fold Change (gene HP0059, exposed to lethal concentrations of V vs control): 0.949
- log2 Fold Change (gene HP0060, exposed to lethal concentrations of V vs control): 0.689
- log2 Fold Change (gene HP0061, exposed to lethal concentrations of V vs control): 0.495
- log2 Fold Change (gene HP0062, exposed to lethal concentrations of V vs control): 0.662
- log2 Fold Change (gene HP0067, exposed to lethal concentration of V vs control): -0.963
- log2 Fold Change (gene HP0068, exposed to lethal concentration of V vs control): -1.529
- log2 Fold Change (gene HP0069, exposed to lethal concentration of V vs control): -2.012
- log2 Fold Change (gene HP0078, exposed to lethal concentrations vs control): 1.195
- log2 Fold Change (gene HP0079, exposed to lethal concentrations of V vs control): 0.665
- log2 Fold Change (gene HP0080, exposed to lethal concentrations of V vs control): 0.805
- log2 Fold Change (gene HP0085, exposed to lethal concentration of V vs control): -0.923
- log2 Fold Change (gene HP0088, exposed to lethal concentrations vs control): -0.010
- log2 Fold Change (gene HP0090, exposed to lethal concentrations vs control): 1.424
- log2 Fold Change (gene HP0091, exposed to lethal concentrations vs control): 1.092
- log2 Fold Change (gene HP0092, exposed to lethal concentrations of V vs control): 0.649
- log2 Fold Change (gene HP0095, exposed to lethal concentration of V vs control): -1.035
- log2 Fold Change (gene HP0096, exposed to lethal concentrations vs control): 1.117
- log2 Fold Change (gene HP0097, exposed to lethal concentrations of V vs control): 0.958
- log2 Fold Change (gene HP0098, exposed to lethal concentration of V vs control): -1.205
- log2 Fold Change (gene HP0101, exposed to lethal concentrations vs control): -0.630
- log2 Fold Change (gene HP0103, exposed to lethal concentrations vs control): 0.054
- log2 Fold Change (gene HP0105, exposed to lethal concentrations of V vs control): 0.625
- log2 Fold Change (gene HP0108, exposed to lethal concentrations vs control): 1.025
- log2 Fold Change (gene HP0110, exposed to lethal concentrations vs control): 1.687
- log2 Fold Change (gene HP0111, exposed to lethal concentrations vs control): 1.794
- log2 Fold Change (gene HP0113, exposed to lethal concentrations vs control): 1.103
- log2 Fold Change (gene HP0114, exposed to lethal concentrations vs control): -0.074
- log2 Fold Change (gene HP0115, exposed to lethal concentrations vs control): -0.842
- log2 Fold Change (gene HP0116, exposed to lethal concentrations of V vs control): 0.934
- log2 Fold Change (gene HP0117, exposed to lethal concentrations of V vs control): 0.602
- log2 Fold Change (gene HP0127, exposed to lethal concentrations vs control): -0.787
- log2 Fold Change (gene HP0129, exposed to lethal concentration of V vs control): -1.484
- log2 Fold Change (gene HP0130, exposed to lethal concentrations vs control): -0.129
- log2 Fold Change (gene HP0131, exposed to lethal concentrations of V vs control): 0.657
- log2 Fold Change (gene HP0132, exposed to lethal concentrations vs control): 1.081
- log2 Fold Change (gene HP0133, exposed to lethal concentrations vs control): 1.547
- log2 Fold Change (gene HP0134, exposed to lethal concentrations vs control): 1.154
- log2 Fold Change (gene HP0135, exposed to lethal concentrations vs control): -0.101
- log2 Fold Change (gene HP0136, exposed to lethal concentrations vs control): -0.118
- log2 Fold Change (gene HP0137, exposed to lethal concentrations of V vs control): 0.731
- log2 Fold Change (gene HP0139, exposed to lethal concentration of V vs control): -0.963
- log2 Fold Change (gene HP0140, exposed to lethal concentrations vs control): 1.186
- log2 Fold Change (gene HP0146, exposed to lethal concentrations vs control): 0.065
- log2 Fold Change (gene HP0147, exposed to lethal concentrations vs control): -0.100
- log2 Fold Change (gene HP0148, exposed to lethal concentrations vs control): -0.863
- log2 Fold Change (gene HP0150, exposed to lethal concentration of V vs control): -1.267
- log2 Fold Change (gene HP0156, exposed to lethal concentrations vs control): -0.062
- log2 Fold Change (gene HP0162, exposed to lethal concentrations vs control): -0.684
- log2 Fold Change (gene HP0163, exposed to lethal concentrations vs control): -0.869
- log2 Fold Change (gene HP0167, exposed to lethal concentrations of V vs control): 0.542
- log2 Fold Change (gene HP0172, exposed to lethal concentrations of V vs control): 0.925
- log2 Fold Change (gene HP0174, exposed to lethal concentrations vs control): -0.654
- log2 Fold Change (gene HP0174a, exposed to lethal concentration of V vs control): -2.290
- log2 Fold Change (gene HP0175, exposed to lethal concentration of V vs control): -0.970
- log2 Fold Change (gene HP0177, exposed to lethal concentrations vs control): -0.625
- log2 Fold Change (gene HP0178, exposed to lethal concentrations vs control): -0.654
- log2 Fold Change (gene HP0181, exposed to lethal concentration of V vs control): -1.122
- log2 Fold Change (gene HP0189, exposed to lethal concentration of V vs control): -1.334
- log2 Fold Change (gene HP0190, exposed to lethal concentration of V vs control): -1.114
- log2 Fold Change (gene HP0192, exposed to lethal concentrations of V vs control): 0.673
- log2 Fold Change (gene HP0193, exposed to lethal concentration of V vs control): -1.006
- log2 Fold Change (gene HP0201, exposed to lethal concentrations vs control): -0.614
- log2 Fold Change (gene HP0207, exposed to lethal concentrations of V vs control): 0.793
- log2 Fold Change (gene HP0211, exposed to lethal concentrations of V vs control): 0.752
- log2 Fold Change (gene HP0212, exposed to lethal concentrations vs control): 0.059
- log2 Fold Change (gene HP0216, exposed to lethal concentrations vs control): 0.078
- log2 Fold Change (gene HP0217, exposed to lethal concentrations of V vs control): 0.712
- log2 Fold Change (gene HP0218, exposed to lethal concentrations vs control): 1.032
- log2 Fold Change (gene HP0219, exposed to lethal concentrations of V vs control): 0.502
- log2 Fold Change (gene HP0220, exposed to lethal concentrations vs control): -0.131
- log2 Fold Change (gene HP0223, exposed to lethal concentrations vs control): -0.091
- log2 Fold Change (gene HP0226, exposed to lethal concentrations vs control): 0.090
- log2 Fold Change (gene HP0227, exposed to lethal concentrations vs control): 1.626
- log2 Fold Change (gene HP0228, exposed to lethal concentrations of V vs control): 0.689
- log2 Fold Change (gene HP0229, exposed to lethal concentration of V vs control): -1.260
- log2 Fold Change (gene HP0231, exposed to lethal concentrations of V vs control): 0.649
- log2 Fold Change (gene HP0232, exposed to lethal concentrations vs control): 1.014
- log2 Fold Change (gene HP0233, exposed to lethal concentrations of V vs control): 0.649
- log2 Fold Change (gene HP0235, exposed to lethal concentrations of V vs control): 0.898
- log2 Fold Change (gene HP0236, exposed to lethal concentration of V vs control): -0.991
- log2 Fold Change (gene HP0238, exposed to lethal concentrations vs control): -0.106
- log2 Fold Change (gene HP0240, exposed to lethal concentration of V vs control): -0.951
- log2 Fold Change (gene HP0241, exposed to lethal concentrations vs control): 0.067
- log2 Fold Change (gene HP0242, exposed to lethal concentrations vs control): 1.094
- log2 Fold Change (gene HP0243, exposed to lethal concentrations vs control): 1.235
- log2 Fold Change (gene HP0244, exposed to lethal concentration of V vs control): -1.126
- log2 Fold Change (gene HP0245, exposed to lethal concentrations vs control): -0.771
- log2 Fold Change (gene HP0247, exposed to lethal concentration of V vs control): -2.235
- log2 Fold Change (gene HP0248, exposed to lethal concentrations vs control): -0.762
- log2 Fold Change (gene HP0249, exposed to lethal concentration of V vs control): -1.183
- log2 Fold Change (gene HP0250, exposed to lethal concentrations of V vs control): 0.866
